# Source: PubChem BioAssay AID504444 (National Center for Advancing Translational Sciences (NCATS), 2011)
# Among all 360,000 compounds or so, about 7,500 (2.1%) were called active. Inconclusive means that the source gave no clear call. Such entries were picked first, then a sample of the others. The call rests on the fitted dose curve; in most records, active means well fitted inhibition curve with a large enough effect; inconclusive means small, poorly fitted or top-dose-only effect, or effect the other way; inactive means flat fitted curve, though single readings scatter. Potencies of inconclusive entries are doubtful fits and often do not repeat.
# Assay: Nrf2 qHTS screen for inhibitors; further: nearly all actives have a fitted effect of over 60% in size
# Conditions: A549 ARE-Fluc reporter, luciferase luminescence, 18-24 h; series mostly up to 46 µM
# Outline: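 Reporter: ARE-Fluc in A549. Exposure: 18-24 h, 37 °C, 5% CO2, 5% FBS OPTI-MEM. Readouts: fluorescent cytotoxicity (CellTiter-Fluor), then luminescent Nrf2 signal after BugLite.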
# Potency means the concentration at half of the fitted maximal effect.
row,SMILES,Potency
1,CCOc1ccc(OCCSc2nc3ccccc3[nH]2)cc1,"inconclusive: 32.6 µM [falling, single point]"
2,C/C(=N\NC(=O)c1n[nH]c2c1CCC2)c1cccs1,"inconclusive: 6.51 µM [activator, partial curve]"
3,CCN(CC)C(=O)CSc1nnc(SCc2ccc(Cl)cc2)s1,"inconclusive: 32.6 µM [falling, single point]"
4,Cc1ccc(O)c(NC(=O)CSc2ccc(Cl)cc2)c1,"inconclusive: 5.17 µM [falling, single point]"
5,O=C(CSc1nc(-c2ccccc2)c(-c2ccccc2)o1)NC1CCS(=O)(=O)C1 (configuration not stated),"inconclusive: 29.1 µM [falling, partial curve, poor fit]"
6,COc1cc(OC)c(C=CC(=O)c2ccccc2O)c(OC)c1,inactive
7,O=C(COc1ccc(F)cc1Cl)Nc1cc(S(=O)(=O)N2CCOCC2)ccc1N1CCCCC1,"inconclusive: 20.6 µM [falling, single point]"
8,O=C(CCCSc1nnc(SCCCC(=O)c2ccc(F)cc2)s1)c1ccc(F)cc1,"inconclusive: 29.1 µM [falling, single point]"
9,COc1ccc(N(C(=O)c2snc(C(N)=O)c2N)C(C(=O)NC2CCCC2)c2ccco2)c(OC)c1 (configuration not stated),"inconclusive: 25.9 µM [falling, single point]"
10,CC(C)(C)C1=CC(=Nc2ccccc2N)C=C(C(C)(C)C)C1=O,"inconclusive: 23.1 µM [falling, single point]"
11,O=C(/C=C/c1ccco1)N1CCN(c2ncccn2)CC1,"inconclusive: 14.6 µM [activator, partial curve, poor fit]"
12,Cc1ccc(C(=O)Nc2c(C)cc(-c3ccc(Cl)cc3)oc2=O)cc1,"inconclusive: 16.4 µM [falling, partial curve, poor fit]"
13,Cc1ccc(-n2nc(C)c(C(=O)NCCCN3CCN(c4cccc(Cl)c4)CC3)c2-n2cccc2)cc1,active: 16.4 µM
14,NC(=O)c1ccc(N2CCN(S(=O)(=O)c3cccs3)CC2)c([N+](=O)[O-])c1,"inconclusive: 13 µM [falling, partial curve, poor fit]"
15,CCOC(=O)C1(CCOc2ccccc2)CCN(Cc2cccc(F)c2)CC1,"inconclusive: 5.17 µM [falling, partial curve, poor fit]"
16,Cc1ccccc1NCc1ccc(O)c2ncccc12,"inconclusive: 29.1 µM [falling, single point]"
17,CCCCCc1ccc(-c2ccc(/C=C/C(=O)O)cc2)nc1,"inconclusive: 16.4 µM [falling, single point]"
18,O=C(NCC1CCCN(C(=O)c2cscn2)C1)c1ccc(-c2ccccc2)cc1 (configuration not stated),"inconclusive: 29.1 µM [falling, single point]"
19,CC(C)C[C@H](NC(=O)C1CCN(S(=O)(=O)c2ccccc2)CC1)C(=O)NCc1ccncc1,"inconclusive: 25.9 µM [activator, single point]"
20,CCOc1ccc(OCc2ccc(C(=O)NN)o2)cc1,"inconclusive: 6.51 µM [activator, partial curve, poor fit]"
21,O=C(N/N=C/c1ccc([N+](=O)[O-])o1)c1cc2ccccc2o1,inactive

# Some of these compounds in order of molecular weight, largest number first:
row,SMILES,Potency
18,O=C(NCC1CCCN(C(=O)c2cscn2)C1)c1ccc(-c2ccccc2)cc1 (configuration not stated),"inconclusive: 29.1 µM [falling, single point]"
15,CCOC(=O)C1(CCOc2ccccc2)CCN(Cc2cccc(F)c2)CC1,"inconclusive: 5.17 µM [falling, partial curve, poor fit]"
1,CCOc1ccc(OCCSc2nc3ccccc3[nH]2)cc1,"inconclusive: 32.6 µM [falling, single point]"

# Next part

row,SMILES,Potency
1,Cc1ccc(C)c(S(=O)(=O)Nc2ccc3cn[nH]c3c2)c1,"inconclusive: 23.1 µM [falling, single point]"
2,Cc1nc2ccc(NS(=O)(=O)c3ccc(F)cc3F)cc2s1,active: 13 µM
3,C=CCOC(=O)C1=C(C)NC(SCC(=O)Nc2ccc(C)c(Cl)c2)=C(C#N)C1c1ccco1 (configuration not stated),active: 6.51 µM
4,O=C(Nc1ccccc1)C(=O)Nc1ccccn1,"inconclusive: 0.82 µM [activator, full curve]"
5,CCc1ccc2ncc(S(=O)(=O)c3ccc(C)c(C)c3)c(N3CCCC3)c2c1,active: 23.1 µM
6,CC(C)Sc1nc2ccccc2c(=O)[nH]1,"inconclusive: 6.51 µM [falling, full curve, poor fit]"
7,O=C(CCc1nnc(-c2ccccc2)o1)NC1CCCCC1,"inconclusive: 20.6 µM [activator, partial curve, poor fit]"
8,COC(CNC(=O)CN1CCN(Cc2ccc(F)cc2Cl)C1=O)OC,inactive
9,O=C(CCCSc1nnnn1-c1cccc2ccccc12)c1ccc(F)cc1,"inconclusive: 32.6 µM [falling, single point]"
10,CN(C(=O)c1cc(-c2ccc3c(c2)OCO3)on1)c1ccccc1,"inconclusive: 6.51 µM [activator, partial curve]"
11,CC1=C(C(=O)Nc2ccc(C(=O)N3CCN(c4cccc(Cl)c4)CC3)cc2)SCCO1,"inconclusive: 18.4 µM [falling, partial curve]"
12,O=[N+]([O-])CC(c1ccccc1)c1c[nH]c2ccccc12 (configuration not stated),inactive
13,COc1cccc(-c2csc(N3CCN(C(=O)NC45CC6CC(CC(C6)C4)C5)CC3)n2)c1,"inconclusive: 16.4 µM [falling, single point]"
14,Cc1ccc(C)c(NC(=O)CN(C)C(=O)c2ccc3[nH]c4c(c3c2)CC(C)CC4)c1 (configuration not stated),active: 18.4 µM
15,CCOC(=O)c1sc2nc(CC(=O)OC)nc(N3CCN(c4ccc(OC)cc4)CC3)c2c1C,"inconclusive: 29.1 µM [falling, single point]"
16,Cc1ccccc1Cn1nc(C)c(NC(=O)c2cc3nc(-c4ccco4)cc(C(F)(F)F)n3n2)c1C,active: 20.6 µM
17,Cc1cccc(N2CCN(C(=O)C(NS(=O)(=O)c3cccs3)c3ccccc3)CC2)c1C (configuration not stated),active: 9.2 µM
18,O=C(C#Cc1ccccc1)Nc1ccccc1F,"inconclusive: 16.4 µM [activator, single point]"
19,CCOC(=O)c1c(C)[nH]c(C)c1S(=O)(=O)NCC(=O)NCc1cccc(Br)c1,"inconclusive: 29.1 µM [activator, single point]"
20,O=S(=O)(c1ccc2oc3ccccc3c2c1)N1CCOCC1,inactive
21,Cc1ccccc1CN1CCc2c(OCC(=O)N3CCCCC3)cccc2C1=O,"inconclusive: 18.4 µM [falling, partial curve, poor fit]"
